Data source: PubChem BioAssay AID686937 (Drosophila RNAi Screening Center, 2013)
Test: 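Genes in the fly needed for secretion of protein constitutively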 (primary screen). Cell system: Drosophila S2 cells expressing secreted horseradish peroxidase. Reagents: long dsRNA against Drosophila genes. Time to read-out: about 5.5 days (5 days dsRNA, then 12 h reporter induction). Conditions: reporter expression induced after 5 days of dsRNA, read 12 h later; inducer not stated. Measured: 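Chemiluminescent measurement of peroxidase in the medium 12 h after reporter induction, following 5 days of dsRNA, given as a z-score per plate; higher means more secretion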. Scale: z-score: higher = more reporter secreted into medium.
The deposit covers about 23,000 reagents; below is a random part of those with a known target gene and a result. 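Reduced-secretion tags in replicate 1 do not always agree with the z-scores; no criterion for assigning the tags was given.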 The numbers tell different reagents against one gene apart. Names joined by + are all predicted targets of the reagent. Further read-outs or replicates are left out here. Not given: the amount of reagent.

Pgk → z-score, replicate 1 = -0.07
CG17378 → z-score, replicate 1 = -0.08
Srg2 → z-score, replicate 1 = 0.31
CtsK2 → z-score, replicate 1 = 0.27
CG5561 → z-score, replicate 1 = -0.07
Parp1 #1 → z-score, replicate 1 = -0.15
Parp1 #2 → z-score, replicate 1 = 0.3
Parp1 #3 → z-score, replicate 1 = 0.4
CG12853 → z-score, replicate 1 = 0.27
dcma #1 → z-score, replicate 1 = 0.28
dcma #2 → z-score, replicate 1 = 0.39
Pa1 → z-score, replicate 1 = 0.43
Cow #1 → z-score, replicate 1 = -0.18
Cow #2 → z-score, replicate 1 = 0.44
ND-PDSW → z-score, replicate 1 = 0.01
CG11123 → z-score, replicate 1 = 0.29
Ptp52F → z-score, replicate 1 = 0.12
fd3F + CR42499 #1 → z-score, replicate 1 = 0.6
fd3F + CR42499 #2 → z-score, replicate 1 = 0.49
mahj → z-score, replicate 1 = -0.77
cmpy → z-score, replicate 1 = 0.21
Alp7 → z-score, replicate 1 = -0.12
CG7011 → z-score, replicate 1 = 0.38

Next part (2 carried over from the part before).
Alp7 → z-score, replicate 1 = -0.12
CG7011 → z-score, replicate 1 = 0.38
CG5715 → z-score, replicate 1 = 0.08
CG31735 → z-score, replicate 1 = 0.46
CG6791 → z-score, replicate 1 = 0.02
CG1896 → z-score, replicate 1 = 0.3
Hmgcl → z-score, replicate 1 = 0.21
CG18586 → z-score, replicate 1 = 0.33
CG15710 → z-score, replicate 1 = 0.25
CG15537 → z-score, replicate 1 = 0.59
CG3164 → z-score, replicate 1 = 0.2
CG11262 → z-score, replicate 1 = 0.29
CG14744 → z-score, replicate 1 = 0.1
RpS5a → z-score, replicate 1 = -1.66
CG3735 → z-score, replicate 1 = -0.07
CG10182 → z-score, replicate 1 = 0.54
CG7220 #1 → z-score, replicate 1 = 0.46
CG7220 #2 → z-score, replicate 1 = 0.4
CG33284 → z-score, replicate 1 = -1.01
